Measured values published in article PMC3739785.
Results are given in words; binding and its absence hold for the method and conditions named. Some entries that bind do so weakly or less than the wild type.

Legend:
human Hsp90α (human) = human Hsp90α (human) (UniProt P07900); assay: SEC; chaperone and cochaperone at 2.5 µM, 10 min at 30°C following 10 min on ice, 40 mM Hepes-KOH pH 7.4, 50 mM KCl, 2 mM Mg2Cl; Superdex 200 HR 10/30 in the same buffer; fractions analysed by SDS-PAGE (Western blot for Aha1 and Cdc37 in the Hsp103 runs); shift of the cochaperone to higher molecular mass; both purified
human Hsp103 (human) = human Hsp103 (human) (UniProt P07900); assay: as above

Substance: human Aha1 (activator of Hsp90 ATPase) (from UniProt O95433 1-338)
- binding (human Hsp90α (human)): binds weakly
- binding (human Hsp103 (human)): binds weakly
